# Primary screen of a compound library

Source: ChEMBL document CHEMBL3988442, “University of Dundee, Small-Polar-MMV Screening Library” (2021).

A: 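Whole-cell growth test on Mycobacterium tuberculosis, read after 4 days in a medium based on cholesterol and the lipid DPPC; the read-out is not stated. Tested at 50 µM. The record gives no direction; compounds that gave an IC50 in retests scored well above the rest, so higher reads as more growth inhibition. Of about 69,000 compounds tested this way, about 370 (0.54%) reached 50% or more in at least one test.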
B: 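Phenotypic screen: M. tuberculosis growth, glucose 7H9 medium, 3 days; the read-out is not stated. Concentration: 50 µM. The record gives no direction; compounds that gave an IC50 in retests scored well above the rest, so higher reads as more growth inhibition. Size under these conditions: about 69,000 compounds, about 760 of them at 50% or above in at least one test.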

Values are the deposited “Percent Effect”, in %. How 0% and 100% were set is not recorded. Most values in the screen are low, and negative values occur. The compounds are a random part of those screened. Two or more numbers in one place are separate tests of the same structure; such repeats can differ widely.

| # | structure | A | B |
|---|---|---|---|
| 1 | `Cc1cccc2c1cnn2CCCNC(=O)CCCC(=O)O` | -16.61% | -1.522% |
| 2 | `c1ncn(CC2CCCN(Cc3cn4ccsc4n3)C2)n1` (centres undefined) | -16.69% | -27.67% |
| 3 | `Cc1ncc(CN2CCC(c3ccnn3C)CC2)n1-c1ccccc1` | -16.79% | 5.884% and -2.285% |
| 4 | `O=C1CC(c2ccncc2)C2(CCN(C(=O)c3ccnnc3)CC2)N1` (centres undefined) | -24.76% | -12.13% |
| 5 | `[H][C@]12CN(CCOC)C(=O)[C@@]1([H])CN(c1ncccn1)C2` | 5.539% and 0.4884% | 9.316% |
| 6 | `c1ccc(NCc2cn3c(n2)CN(Cc2ccoc2)CC3)nc1` | 3.332% | -16.09% and -9.042% |
| 7 | `O=C(N1CCCC1)N1CCn2c(Cn3cccn3)cnc2C1` | -16.48% | -6.108% |
| 8 | `Cc1cccc(NC2CCN(C(=O)Nc3cc(C)on3)CC2)n1` | 4.277% | 13.62% |
| 9 | `Cc1cc(C(F)(F)F)nc(CCNc2nc(C)nc3c2cnn3C)n1` | 17.71% | -5.076% |
| 10 | `CCC(O)CN(Cc1ccccc1)S(=O)(=O)c1cnc(C)s1` (centres undefined) | -5.479% | -16.03% and 1.457% |
| 11 | `COc1ccccc1-n1nc(-c2ccco2)n(CC(=O)NC2CC2)c1=O` | 5.929% | -48.37% |
| 12 | `COC1CN(CCO)S(=O)(=O)c2ccccc21` (centres undefined) | -2.295% | -3.922% |
| 13 | `Cc1cccc2[nH]c(COCC(=O)N3CCCn4cncc4C3)nc12` | 8.958% | -0.3867% |
| 14 | `CC(C)COCC1CN(Cc2ccco2)Cc2ncn(C)c21` (centres undefined) | -9.555% | -8.808% |
| 15 | `Cc1n[nH]c(C2CN(CC(=O)NCCC3=CCCCC3)CCO2)n1` (centres undefined) | -36.09% | -12.41% |
| 16 | `CCOc1ccc(-c2c(C#N)c(N)nc3c2COCC3)cn1` | 6.187% | -4.195% |
| 17 | `Cc1nc2ccccc2nc1CN1CCCC1Cn1cncn1` (centres undefined) | -31.84% | -8.061% |
| 18 | `CC(=O)N1CCC2(CC1)C(=O)N(C)c1ccc(F)cc12` | -8.334% | -10.25% |
| 19 | `CC(C)OCCS(=O)(=O)NC1CCN(C2CCCC2)C1` (centres undefined) | -23.12% | -23.2% and 6.999% |
| 20 | `CCn1c(C(=O)N2CCN(C(=O)NC(C)C)CC2)cc2ccccc21` | -3.013% | 4.215% |
| 21 | `Cn1ccnc1C1CCCN(C(=O)c2ccncc2F)C1` (centres undefined) | -16.68% and -7.632% | -4.648% |
| 22 | `CNC(=O)CS(=O)(=O)NC1CCC(C)CC1` (centres undefined) | -2.609% | 32.81% |
| 23 | `CCN1CC(C(=O)NCc2nc(C3CCCCC3)no2)CC1=O` (centres undefined) | -22.96% | -6.591% |
| 24 | `CCC(CNc1ncnc2oc(C)nc12)Cc1ccccc1` (centres undefined) | 26.31% | 43.37% |
| 25 | `CC(=O)N1CCN(c2cc(C3CN(C)CCO3)nc(C)n2)CC1` (centres undefined) | -20.46% | 3.316% |
| 26 | `CCc1ncnc2c1CCN(Cc1ccccn1)CC2.O=C(O)C(F)(F)F.O=C(O)C(F)(F)F` | 1.378% | 14.45% |
| 27 | `CNS(=O)(=O)c1cccc(C(=O)N(C)Cc2ccsc2)c1` | -23.2% | -30.7% |
| 28 | `Cc1nc(CNCc2c(C)nn(C)c2N2CCOCC2)cs1` | -7.165% | -26.79% |
| 29 | `CC(C)NC(=O)N1CC[C@@H](N(C)C)[C@@H]1Cc1ccccc1.O=C(O)C(F)(F)F` | -17.67% | 9.275% |
| 30 | `Cc1noc(C(C)C)c1C(=O)NS(=O)(=O)c1ccc2c(c1)OCCCO2` | -1.594% | -5.05% and 13.83% |
| 31 | `CC(=O)Nc1ccc(-c2cn(CCn3c(C)cc(C)nc3=O)nn2)cc1` | 8.594% | -1.97% |
| 32 | `Cc1ccc2c(CC(=O)N(C)CCN(C)C)c(C)[nH]c2c1C.O=C(O)CC(O)(CC(=O)O)C(=O)O` | -20.8% and -17.62% | -4.332% |
| 33 | `O=C(O)C(F)(F)F.O=C(O)C(F)(F)F.[H][C@@]12CCCO[C@]1([H])[C@@H](Oc1ncccc1F)CN2Cc1ccoc1` | -36.89% | -7.354% |
| 34 | `CC(C)CNC(=O)N1CCC2(CCCO2)C1` (centres undefined) | 11.13% | -5.453% and 15.4% |
| 35 | `C[S+]([O-])c1nncn1CC(=O)c1ccc(Br)cc1` (centres undefined) | 9.344% | -6.633% and 15.61% |
| 36 | `CN1CCc2c(C#N)c(NCCCO)n3cnnc3c2C1` | -6.078% | -0.7689% |
| 37 | `COCCOCCSc1nnc(Cc2ccccc2F)o1` | 15.04% and 41.4% | 20.24% |
| 38 | `COCCN(C)C[C@@H]1CN(C(=O)c2ccoc2)C[C@@H]1CO` | 29.84% | -7.644% |
| 39 | `Cc1nn2c(NC(=O)CSc3nccn3C)csc2nc1=O` | -23.18% | -23.21% |
| 40 | `Cc1ccc2c(c1)N(C(=O)C1CCCOC1)CCC2` (centres undefined) | 8.485% | 12.6% and 6.654% |
| 41 | `[H][C@@]12COC[C@]1([H])[C@@H](OC)CN2C(=O)c1ccc[nH]1` | 1.535% | 9.478% |
| 42 | `[H][C@@]12CC(=O)N(c3cnn(C)c3)[C@@]1([H])CCN2C(=O)c1ccco1` | -2.857% | 27.78% |
| 43 | `COc1ccccc1CC1CCN(C(=O)CCN2CCOC2=O)CC1` | 3.691% | 3.235% |
| 44 | `COc1ccc2cc(C(=O)NCCNc3ccc(C)nn3)[nH]c2c1` | -10.48% | -17.69% |
| 45 | `Cn1cc(-c2cnc(-c3ccnn3C)nc2)cc1C(=O)NC1CC1` | 15.55% | 26.28% |
| 46 | `O=C(O)C(F)(F)F.[H][C@@]12CCN(CC(=O)NC)C[C@]1([H])CN(C(=O)c1ccc(C)cc1)C2` | -20.3% | 6.256% |
| 47 | `CCNc1ncc(C(=O)NC(CC)c2ccnn2C)cn1` (centres undefined) | -13.82% | -8.869% |
| 48 | `CC(C)(O)CNc1ccc(C#N)c(C(F)(F)F)c1` | 3.785% | 0.5897% |
| 49 | `COC(=O)c1cc2c(OC)c(C)c(OC)cc2[nH]1` | 5.461% | 19.6% |
| 50 | `Cc1ccc(OCC(=O)Nc2ccc(S(C)(=O)=O)cc2)cc1C` | -30.89% | -43.83% |
| 51 | `CC(C)(O)CN1CCN(C(=O)c2sccc2C#N)CC1` | -4.004% | -16.91% |
| 52 | `NCc1n[nH]c(-c2ccc(F)cc2)n1` | -9.786% | -7.7% and -2.696% |
| 53 | `O=C(O)C(F)(F)F.O=C(O)C(F)(F)F.O=C(c1ccncc1)N1CCCC2(CCN(c3cccnc3)C2=O)C1` (centres undefined) | -4.068% | 14.67% and -9.308% |
| 54 | `CCOc1ccc2nc(CN3CCC(CNC(C)=O)C3)ccc2c1` (centres undefined) | -3.703% | -1.281% |
| 55 | `CCN1CC2(CC1=O)CN(C(=O)c1ccco1)CCN(C(=O)N(C)C)C2` (centres undefined) | -11.34% | 2.347% |
| 56 | `O=C(O)C(F)(F)F.[H][C@@]12CCN(Cc3ccc4c(c3)OCO4)C[C@]1(C(=O)N(C)C)CCO2` | 19.28% | 11.51% |
| 57 | `C[C@@H]1CN(C(=O)CCCN2CCOCC2)CC[C@@]1(O)C1CCC1` | 13.1% | 25.53% |
| 58 | `[H][C@]12CC[C@]([H])(CN(C3Cc4ccccc4C3)C1)N(C(=O)COCCOC)C2` | 17.02% | 5.497% and 0.08521% |
| 59 | `CN1C(=O)C2(NC(=O)c3ccccc3O2)c2ccccc21` (centres undefined) | -7.047% | 4.234% and 9.688% |
| 60 | `Cc1c(Br)cccc1CSc1nnc(CO)n1C` | -6.73% | 3.12% and 6.393% |
| 61 | `CNC(=O)C1CCN(C(=O)NCc2ccc(-c3ccn[nH]3)cc2)CC1` | -2.075% | -40.03% |
| 62 | `CN(C)CC(=O)N1Cc2nc(C(=O)N3CCCN(C)CC3)oc2C1` | -7.523% | -13.16% |
| 63 | `Cc1[nH]c2c(F)cccc2c1CC(=O)NC1CCCCNC1=O` (centres undefined) | -24.33% | -36.75% |
| 64 | `O=C(c1csc(I)c1)N1CCc2c(ncn2C2CC2)C1` | 3.024% | 6.332% and -10.28% |
| 65 | `CN(C)C(=O)c1cc2c(nc1NCC1CC1)CCN(CC1CC1)CC2` | 3.708% | 21.96% |
| 66 | `CN(Cc1ccc(-n2cccn2)cc1)Cc1cnc(N(C)C)nc1` | 32.82% | 41.13% |
| 67 | `COc1cc(N2CCCC(c3ncc[nH]3)C2)ncn1` (centres undefined) | 1.957% | 24.03% |
| 68 | `O=C(c1cnn(-c2ccccc2Cl)c1)N1CCN(CCO)CC1` | -19.87% | 4.529% |
| 69 | `Cc1ncc(CC(=O)N2CCC3(CCC(=O)N(CCO)C3)CC2)c(=O)[nH]1` | -5.166% | -14.8% |

Repeated from the top, 8 entries:

{"structure": "Cc1cccc2c1cnn2CCCNC(=O)CCCC(=O)O", "A": -16.61, "B": -1.522}
{"structure": "c1ncn(CC2CCCN(Cc3cn4ccsc4n3)C2)n1", "stereo": "centres undefined", "A": -16.69, "B": -27.67}
{"structure": "Cc1ncc(CN2CCC(c3ccnn3C)CC2)n1-c1ccccc1", "A": -16.79, "B": "5.884 and -2.285"}
{"structure": "O=C1CC(c2ccncc2)C2(CCN(C(=O)c3ccnnc3)CC2)N1", "stereo": "centres undefined", "A": -24.76, "B": -12.13}
{"structure": "[H][C@]12CN(CCOC)C(=O)[C@@]1([H])CN(c1ncccn1)C2", "A": "5.539 and 0.4884", "B": 9.316}
{"structure": "c1ccc(NCc2cn3c(n2)CN(Cc2ccoc2)CC3)nc1", "A": 3.332, "B": "-16.09 and -9.042"}
{"structure": "O=C(N1CCCC1)N1CCn2c(Cn3cccn3)cnc2C1", "A": -16.48, "B": -6.108}
{"structure": "Cc1cccc(NC2CCN(C(=O)Nc3cc(C)on3)CC2)n1", "A": 4.277, "B": 13.62}